# Assay results from PubChem BioAssay AID652054 (National Center for Advancing Translational Sciences (NCATS), 2013).
# By UniProt entry, the sequences of proteins in these tests, tags left out.
# UniProt P35462, whole entry, looked up: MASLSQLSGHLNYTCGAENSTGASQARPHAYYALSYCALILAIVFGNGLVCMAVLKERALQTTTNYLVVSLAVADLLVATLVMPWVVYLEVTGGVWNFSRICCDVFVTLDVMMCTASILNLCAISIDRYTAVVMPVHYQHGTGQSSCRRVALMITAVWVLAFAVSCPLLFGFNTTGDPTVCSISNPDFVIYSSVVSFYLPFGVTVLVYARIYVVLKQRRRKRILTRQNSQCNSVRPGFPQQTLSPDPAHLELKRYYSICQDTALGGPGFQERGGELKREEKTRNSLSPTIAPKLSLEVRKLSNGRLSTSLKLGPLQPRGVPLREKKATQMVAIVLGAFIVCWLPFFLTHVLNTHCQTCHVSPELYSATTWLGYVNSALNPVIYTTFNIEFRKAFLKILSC
# The whole screen tested about 360,000 compounds, of which about 9,100 (2.5%) were called active. The shares of active, inactive and inconclusive entries below differ from those in the screen. Cut-off read from the data, not from the text of the source: active = max response below about -50%; inconclusive = no clear call, values can overlap the other calls; inactive = above that.
# Biological target: D(3) dopamine receptor (Homo sapiens) (UniProt P35462)
# Test: qHTS of D3 Dopamine Receptor Antagonist: qHTS
# Settings: D3R cells, DiscoveRx beta-arrestin luminescence, antagonist mode; active compounds read low
# Method in brief: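 Cells expressing the human receptor were seeded at 1500 cells/well, incubated overnight at 37 degrees C in 5% CO2, then exposed to library compounds with dopamine controls for 90 minutes at 37 degrees C before luminescent detection.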
# % is set by controls: 0 for no effect and ±100 for the full control effect.
row,SMILES,"max response, negative = inhibition"
1,Cc1ccc(S(=O)(=O)N2[C@@H](c3ccc(Br)cc3)C(C(=O)O)=CC[C@H]2c2ccc(C(C)C)cc2)cc1,inconclusive: -34.7%
2,COc1ccc(-c2nc(CS(=O)CC(=O)NCCCN3CC(C)CC(C)C3)c(C)o2)cc1OC (centres undefined),inconclusive: -37.2%
3,O=c1c2ccccc2sc2c(CO)ccc(NCCN3CCCCC3)c12,inconclusive: -37.9%
4,C=CCc1cc(Cl)ccc1OCCCNC(C)C,inconclusive: -36.6%
5,O=C(NNc1cc(N2CCCC2)nc(N2CCCC2)n1)c1ccc([N+](=O)[O-])cc1,inconclusive: -30.8%
6,Cc1cc2cc(C(c3nnnn3C(C)(C)C)N(Cc3ccco3)CC3CCCO3)c(=O)[nH]c2cc1C (centres undefined),inconclusive: -30.5%
7,CCN1CCN(CCOc2ccccc2OCc2ccccc2)CC1,inconclusive: -32.5%
8,CCN(CC(=O)Nc1ccc(OC)c(OC)c1)CC(=O)Nc1ccccc1C(F)(F)F,inactive: 1.08%
9,COc1cccc(-c2nn(C)c3sc(C(=O)NCc4ccc(C)cc4)cc23)c1,inconclusive: -41.7%
10,COc1ccccc1N(C(=O)c1snc(C(N)=O)c1N)C(C(=O)NCc1ccccc1)c1ccc(O)cc1 (centres undefined),inactive: 1.94%
11,NNC(=O)C1C(O)CCC2CN3CCc4c([nH]c5ccccc45)C3CC21 (centres undefined),inconclusive: -44.1%
12,O=C(NCCN1C(=O)S/C(=C\c2ccc(Cl)c([N+](=O)[O-])c2)C1=O)C1=COCCO1,active: -55.2%
13,Cc1c(C)c2cccnc2c2ncccc12,active: -103%
14,COc1ccc(F)cc1S(=O)(=O)NCc1ccccc1,inactive: -3.92%
15,CCSc1nc(N)nc2c1ncn2C1OC(CO)C(O)C1O (centres undefined),inactive: 12.9%
16,CC(C)C[C@@H]1O[C@H](CCc2ccccc2)Cc2[nH][nH]c(=O)c21,inconclusive: -35.4%
17,CC1CCCC(CC(=O)O)(CC(=O)O)C1 (centres undefined),inconclusive: -34.7%
18,CCC1(C)COC2(OC1)C(=O)Nc1ccccc12 (centres undefined),inconclusive: -32.8%
19,Cc1nc(SCC(=O)N2CCCc3ccccc32)c2oc3ccccc3c2n1,inactive: 15.4%
20,O=C(NCc1nc2ccccc2[nH]1)c1ccc(Cl)c(S(=O)(=O)N2CCCC2)c1,inconclusive: -43.2%
21,O=S(=O)(c1ccc(C2CCCCC2)cc1)N1CCCC1,inconclusive: -35.5%
22,COc1ccc(C(CNC(=O)c2ccc(Cl)c(NC(=O)c3cccs3)c2)N2CCCC2)cc1 (centres undefined),active: -68.4%
23,CC(=O)Nc1ccc2c(c1)nc(C)n2Cc1ccccc1,inactive: -13.4%
24,CCCCN1C2=NCCCN2c2ccccc21,inconclusive: -46%

# 2 compounds picked at random from those above:
row,SMILES,"max response, negative = inhibition"
1,Cc1ccc(S(=O)(=O)N2[C@@H](c3ccc(Br)cc3)C(C(=O)O)=CC[C@H]2c2ccc(C(C)C)cc2)cc1,inconclusive: -34.7%
22,COc1ccc(C(CNC(=O)c2ccc(Cl)c(NC(=O)c3cccs3)c2)N2CCCC2)cc1 (centres undefined),active: -68.4%
